From PubChem BioAssay AID504467 (National Center for Advancing Translational Sciences (NCATS), 2011)
Screen size: about 330,000 compounds; about 7,700 (2.3%) were called active. The shares of active, inactive and inconclusive entries below differ from those in the screen. Calls follow the shape of the dose curve; as a rule, active = well fitted inhibition curve with a large enough effect; inconclusive = small, poorly fitted or top-dose-only effect, or effect the other way; inactive = flat fitted curve, though single readings scatter. A potency beside an inconclusive call is a rough fit, not a confirmed value.
% is scaled to controls: 0 for no effect and ±100 for the full control effect; potency is read from the fitted curve at half-maximal effect.

Experiment: qHTS screen for small molecules that inhibit ELG1-dependent DNA repair in human embryonic kidney (HEK293T) cells expressing luciferase-tagged ELG1; also: nearly all actives have a fitted effect of over 55% in size
Settings: HEK293T ELG1-luciferase reporter, luminescence, 16 h, DNA damage induced by 5-fluorouridine; activity change, negative = inhibition: at 46.1 µM (top of the series)
How it was run: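 Step one: seed 2,000 cells per well. Step two: pin-transfer compound or DMSO alongside 5-fluorouridine. Step three: incubate 16 hr, 37 °C, 5% CO2. Step four: add ONE-Glo, wait 30 min, read luminescence.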
For `CN1CCN(c2ncnc3scc(-c4ccccc4Cl)c23)CC1`, the Potency was active: 4.11 µM.
In the case of `O=C(Nc1c(C(=O)N2CCN(c3ccccn3)CC2)oc2ccccc12)c1cccc([N+](=O)[O-])c1`, the Potency is reported as inconclusive: 11.6 µM [inhibitor, partial curve].
For `Cc1nc(NC(=O)COc2ccccc2)sc1C(=O)Nc1cccc(Cl)c1`, the Potency was inconclusive: 25.9 µM [activator, partial curve, poor fit].
In the case of `CC(=O)N1c2ccccc2[C@@H](C)[C@@H]1C`, the Potency is reported as inconclusive: 29.1 µM [activator, single point].
For `CCOc1ccccc1NC(=O)c1ccc(S(=O)(=O)N(C)C)cc1`, the Potency was inconclusive: 23.1 µM [inhibitor, single point].
For `Cc1cc(NC(=O)c2ccccc2F)n(-c2nc3ccccc3[nH]2)n1`, the Potency was active: 16.4 µM.
In the case of `C=CCn1c(SCC(=O)Nc2cccc3ccccc23)nnc1-c1cnccn1`, the Potency is reported as inconclusive: 16.4 µM [inhibitor, partial curve, poor fit].
In the case of `O=C(NCCOc1ccc(F)cc1)c1ccccc1SCc1ccccc1`, the Potency is reported as inconclusive: 18.4 µM [inhibitor, single point].
With `COCc1nnc(NC(=O)c2cc(Cl)ccc2OC)s1` the Potency was inconclusive: 32.6 µM [activator, partial curve, poor fit].
In the case of `CC(C)Cc1nnc(NC(=O)c2ccc([N+](=O)[O-])cc2)s1`, the Potency is reported as inconclusive: 10.3 µM [activator, partial curve].
For `Cc1ccc(NC(=O)c2cccc(S(=O)(=O)N3CCCc4ccccc43)c2)nc1`, the Potency was active: 18.3 µM.
In the case of `Cc1ccc(C2(C)NC(=O)N(CC(=O)N3CC(=O)Nc4ccccc43)C2=O)cc1` (configuration not stated), the Potency is reported as inconclusive: 18.3 µM [activator, partial curve, poor fit].
With `Cc1nnc(SCc2ccccc2F)n1NCc1cccs1` the Potency was inconclusive: 16.4 µM [activator, single point].
With `CCC(C)Sc1ccc([C@@H]2[C@H]3C(=O)N(C)C(=O)[C@H]3[C@]3(C(=O)OC)CCCN23)cc1` (some centres not stated) the “activity change, negative = inhibition” value was inactive: -9.88%.
With `C[C@H](CCC(=O)NCC(=O)O)[C@H]1CC[C@H]2[C@@H]3[C@H](O)C[C@@H]4C[C@H](O)CC[C@]4(C)[C@H]3C[C@H](O)[C@]12C` the Potency was inconclusive: 0.461 µM [inhibitor, full curve].
For `O=C(Nc1nc2ccccc2s1)C1=NN(c2ccccc2)C(=O)CC1`, the Potency was inconclusive: 20.6 µM [activator, partial curve, poor fit].
With `CN1CCCN(Cc2nc(-c3ccc(Cl)cc3)no2)CC1` the Potency was inconclusive: 18.3 µM [activator, partial curve, poor fit].
With `Cc1ccc(C)c(NC(=O)c2cnc3n(c2=O)CCS3)c1` the Potency was inconclusive: 3.66 µM [activator, partial curve].
With `O=[N+]([O-])c1ccc(O)c(/C=N/Nc2ccc(Cl)nn2)c1` the Potency was inconclusive: 0.651 µM [inhibitor, partial curve, poor fit].
For `O=C(Oc1ccc(C(=S)N2CCOCC2)cc1Br)c1ccccc1F`, the “activity change, negative = inhibition” value was inactive: -8.47%.
With `O=C1CN2NC(=S)N(c3ccccc3)C2=CN1c1ccc(Cl)cc1` the “activity change, negative = inhibition” value was inactive: -5.27%.
With `COCCNC(=O)c1ccccc1NC(=O)c1cc(OC)cc(OC)c1` the Potency was inconclusive: 29.1 µM [inhibitor, single point].
With `Nc1c(C(=O)Nc2ccccc2F)sc2nc(-c3ccco3)ccc12` the Potency was inconclusive: 20.6 µM [activator, partial curve].
For `S=c1[nH]nc(-c2cc(-c3ccccc3)n[nH]2)n1/N=C/C=C/c1ccco1`, the “activity change, negative = inhibition” value was inactive: 3.22%.
For `COc1ccc(NS(=O)(=O)c2cccc(C(=O)N3CCN(Cc4ccc5c(c4)OCO5)CC3)c2)cc1`, the Potency was inconclusive: 20.6 µM [inhibitor, single point].
With `CCOC(=O)CN1C(=O)S/C(=C/c2cc(C)n(-c3ccccn3)c2C)C1=O` the Potency was inconclusive: 14.6 µM [activator, partial curve].
With `Cc1c(Cl)cccc1NC(=S)NNS(=O)(=O)c1ccc([N+](=O)[O-])cc1` the “activity change, negative = inhibition” value was inactive: -20.3%.
For `CC(C)C(=O)NC(CC(=O)O)c1ccccc1` (configuration not stated), the Potency was inconclusive: 20.6 µM [activator, single point].
In the case of `CCNc1nc(NC(C)C)nc(Oc2ccc(OCCOc3ccccc3)nn2)n1`, the Potency is reported as inconclusive: 23.1 µM [activator, single point].
With `O=C(CCSc1ccc(Cl)cc1)N1CCN(S(=O)(=O)c2ccccc2)CC1` the Potency was inconclusive: 29.1 µM [inhibitor, single point].
For `Cc1ccc(/C=N/NC(=O)c2cc3c(ccc4ccccc43)o2)o1`, the Potency was inconclusive: 18.3 µM [inhibitor, single point].
With `CCOC(=O)c1ccc(Nc2nc(-c3cccnc3)nc3ccccc23)cc1` the Potency was inconclusive: 6.31 µM [inhibitor, partial curve, poor fit].
In the case of `COCCCn1c(SCC(=O)Nc2oc(C)c3c(C)n[nH]c(=O)c23)nc2ccccc2c1=O`, the Potency is reported as inconclusive: 23.1 µM [inhibitor, single point].
For `c1ccc(COc2cccc(CNCc3cccs3)c2)cc1`, the Potency was inconclusive: 13 µM [activator, partial curve].
With `CN1CCN(c2ccccc2/C=C2/C(=O)Nc3ccccc32)CC1` the “activity change, negative = inhibition” value was inactive: -0.0742%.
For `Cc1ccc(/C=C2\SC(=O)N(CCNC(=O)C3CSC4(C)CCC(=O)N34)C2=O)cc1` (configuration not stated), the “activity change, negative = inhibition” value was inactive: 0.887%.
In the case of `C=CCNc1nc(Nc2ccc(Cl)cc2)nc(OC)n1`, the Potency is reported as inconclusive: 20.6 µM [activator, partial curve].
In the case of `O=C(COC(=O)c1ccc[nH]c1=O)NC1CCCCCCC1`, the Potency is reported as inconclusive: 11.6 µM [activator, partial curve].
In the case of `CC(/C=N\NC(=O)c1ccc2c(c1)OCO2)c1ccccc1` (configuration not stated), the “activity change, negative = inhibition” value is reported as inactive: 10.2%.
With `CCOc1cc2c(cc1OCC)C(c1ccc(C(=O)O)cc1)NCC2` (configuration not stated) the “activity change, negative = inhibition” value was inactive: -1.1%.
In the case of `Cc1cc(OCC(=O)NCCCN2CCOCC2)c2c(C)cc(=O)oc2c1`, the “activity change, negative = inhibition” value is reported as inactive: 11.2%.
In the case of `COc1ccc(Cn2cccc(NC(=O)Nc3cccc(OC)c3)c2=O)cc1`, the Potency is reported as inconclusive: 16.4 µM [inhibitor, partial curve, poor fit].
